Results are given in words; binding and its absence hold for the method and conditions named. Binding calls can cover weak binding; strength is not graded here.
Target: T1, eukaryotic initiation factor 4B (eIF4B), wheat (wheat) (UniProt Q9AUJ7)
T1 sequence: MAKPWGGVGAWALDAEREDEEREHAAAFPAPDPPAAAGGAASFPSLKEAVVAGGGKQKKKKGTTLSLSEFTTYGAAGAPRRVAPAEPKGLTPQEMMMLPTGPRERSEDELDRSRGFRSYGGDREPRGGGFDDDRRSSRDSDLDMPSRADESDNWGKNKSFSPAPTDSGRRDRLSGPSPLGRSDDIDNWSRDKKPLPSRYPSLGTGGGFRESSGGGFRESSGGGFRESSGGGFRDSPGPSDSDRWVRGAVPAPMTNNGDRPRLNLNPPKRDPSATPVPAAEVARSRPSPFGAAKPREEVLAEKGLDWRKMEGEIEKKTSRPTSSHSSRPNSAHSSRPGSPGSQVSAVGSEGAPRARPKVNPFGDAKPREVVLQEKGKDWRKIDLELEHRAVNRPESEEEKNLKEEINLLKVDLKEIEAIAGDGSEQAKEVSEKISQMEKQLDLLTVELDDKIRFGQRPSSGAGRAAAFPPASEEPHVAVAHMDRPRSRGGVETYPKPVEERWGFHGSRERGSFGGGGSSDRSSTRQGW
Assay: other fluorescence titration; 25°C; quenching of the intrinsic fluorescence of the eIFs (excitation 280 nm, emission 334 nm) by increasing VPg; 100 nM eIFs or BSA (results; 500 nM in the methods); 20 mM HEPES/KOH pH 7.6, 100 mM NaCl, 1 mM MgCl2, 1 mM DTT; complexes pre-formed for 15 min; both purified

Substance: viral protein genome-linked (VPg) of turnip mosaic virus
- binding: binds weakly
